Here are results for three molecules from publication PMC3819348.

Protein sequences, listed by entry. Tags and fused reporters are not part of them.
UniProt Q9SK03: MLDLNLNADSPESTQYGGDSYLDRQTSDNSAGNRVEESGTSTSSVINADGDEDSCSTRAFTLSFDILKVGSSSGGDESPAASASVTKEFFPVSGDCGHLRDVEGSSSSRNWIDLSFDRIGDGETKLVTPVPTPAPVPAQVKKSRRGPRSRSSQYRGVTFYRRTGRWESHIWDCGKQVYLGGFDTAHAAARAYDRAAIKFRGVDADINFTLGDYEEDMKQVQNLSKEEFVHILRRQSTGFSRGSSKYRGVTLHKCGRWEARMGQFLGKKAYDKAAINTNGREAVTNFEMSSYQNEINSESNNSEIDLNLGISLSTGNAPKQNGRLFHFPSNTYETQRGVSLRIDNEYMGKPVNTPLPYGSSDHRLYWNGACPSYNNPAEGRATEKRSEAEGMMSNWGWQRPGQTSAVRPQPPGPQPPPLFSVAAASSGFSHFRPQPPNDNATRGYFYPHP
UniProt Q93WU6: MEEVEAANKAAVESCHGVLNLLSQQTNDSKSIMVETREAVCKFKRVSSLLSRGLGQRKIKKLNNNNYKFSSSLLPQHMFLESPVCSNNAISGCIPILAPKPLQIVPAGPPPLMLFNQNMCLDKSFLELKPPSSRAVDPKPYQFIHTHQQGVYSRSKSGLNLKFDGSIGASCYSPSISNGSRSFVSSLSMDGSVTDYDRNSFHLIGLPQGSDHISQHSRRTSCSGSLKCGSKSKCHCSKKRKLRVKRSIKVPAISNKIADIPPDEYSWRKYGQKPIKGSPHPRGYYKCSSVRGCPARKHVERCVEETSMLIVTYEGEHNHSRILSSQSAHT

No constants are given. Whether binding was seen depends on the method and setting. Some binding calls cover weakened binding; strength is not graded here.

The chains are these.
B1: WRKY20 (protein, UniProt Q93WV0-1 1-557)
chain: MNPQANDRKEFQGDCSATGDLTAKHDSAGGNGGGGARYKLMSPAKLPISRSTDITIPPGLSPTSFLESPVFISNIKPEPSPTTGSLFKPRPVHISASSSSYTGRGFHQNTFTEQKSSEFEFRPPASNMVYAELGKIRSEPPVHFQGQGHGSSHSPSSISDAAGSSSELSRPTPPCQMTPTSSDIPAGSDQEESIQTSQNDSRGSTPSILADDGYNWRKYGQKHVKGSEFPRSYYKCTHPNCEVKKLFERSHDGQITDIIYKGTHDHPKPQPGRRNSGGMAAQEERLDKYPSSTGRDEKGSGVYNLSNPNEQTGNPEVPPISASDDGGEAAASNRNKDEPDDDDPFSKRRRMEGAMEITPLVKPIREPRVVVQTLSEVDILDDGYRWRKYGQKVVRGNPNPRSYYKCTAHGCPVRKHVERASHDPKAVITTYEGKHDHDVPTSKSSSNHEIQPRFRPDETDTISLNLGVGISSDGPNHASNEHQHQNQQLVNQTHPNGVNFRFVHASPMSSYYASLNSGMNQYGQRETKNETQNGDISSLNNSSYPYPPNMGRVQSGP
B2: WRKY44 (protein, UniProt Q9ZUU0 1-429)
chain: MEVNDGERVVIAKPVASRPSSSSGFRTFTELLTDSVTVSPQTTCHEIVDAAIRPKTLRFNQPVAASVSCPRAEVKGIGNGMSCDDDSDSRNYVVYKPKAKLVSKATVSALANMLQGNRQQTWRQSEAVSYGKSVSQGTHRAGPNLVQKVPSFTESETSTGDRSSVDGYNWRKYGQKQVKGSECPRSYYKCTHPKCPVKKKVERSVEGQVSEIVYQGEHNHSKPSCPLPRRASSSISSGFQKPPKSIASEGSMGQDPNNNLYSPLWNNQSNDSTQNRTEKMSEGCVITPFEFAVPRSTNSNPGTSDSGCKSSQCDEGELDDPSRSKRRKNEKQSSEAGVSQGSVESDSLEDGFRWRKYGQKVVGGNAYPRSYYRCTSANCRARKHVERASDDPRAFITTYEGKHNHHLLLSPPSSSTLPFNSPQLSKQTI

The target of this experiment is TOE1 (Target of EARLY ACTIVATION TAGGED 1) (Arabidopsis thaliana) (UniProt Q9SK03). Put plainly: two-hybrid; pGBKT7-TOE1 as bait in Y2H Gold, pGADT7-WRKY as prey in Y187, mated; spotted on SD/-Leu/-Trp/-His/-Ade/X-alpha-gal/AbA agar, 30°C; empty pGBKT7 as control.
Regarding WRKY74 (from UniProt Q93WU6 1-330), the binding result is given as “no binding”.

On to B1, for which the binding result is “no binding”.

On to B2, for which the binding entry is reported as “binds”.
